At least one compound was matched to its structure with a doubt left. Some entries share one result that the patent states for a list of compounds.
How the values were obtained:
[1] = system: GA-deficient transgenic soybean line 719 (R5); experiment: Hilum treatment of soybean seeds, seedling growth and development, GA-deficient soybean; format: in vivo, Glycine max; conditions: rate response
Protocol: In the previous experiments, the effect of various GA compounds on transgenic, GA-deficient and wild-type soybean is evaluated by treating seeds with these compounds via imbibition. Several of these compounds are not completely soluble in water, which limited the interpretation of their utility in rescuing GA-deficient dwarf plants. The purpose of this experiment is to reevaluate selected, previously tested compounds, and additional compounds, by introducing them to the seed via the hilum. As shown by the results presented below, direct application of small quantities of GA compounds dissolved in an organic solvent to the hilum is an effective method of treating soybean seeds. As in the previously described experiments, comparison is made between activity on GA-deficient soybean seedlings and normal (wild-type) seedlings. […] soybean seeds are supplied by Asgrow Seed Company (Des Moines, Iowa). Seed of GA-deficient transgenic soybean line 719 is created by transformation of […] soybean with pMON29801 (FMV/antisense CPScc). Fifth generation seed (R5) is used for these experiments. […] When multiple droplets are applied, each 1 μl droplet is allowed to dry before subsequent droplets are added. Ethanol minus compound is used a treatment control. […] (29° C.) and 75° F. (24° C.), respectively. Emergence timing is measured by counting the number of emerged seedlings at different times after planting. Emergence is defined as the presence of cotyledons raised to soil level or above. […] To assess the ability of a seed treatment to deliver biological activity beyond the first internode, measurements are taken on selected treatments after prolonged growth and development.

[2] = Particulate material present in solutions after mixing; format: physicochemical; conditions: for Particulate material present, 100X Diln w/water: 0.25 mg/ml compound in water; for Particulate material present, Initial Mixing: 25 mg/ml in absolute ethanol; for Particulate material present, O/N Incubation: 25 mg/ml in ethanol, overnight at room temperature, remixed
Protocol: Each of the compounds noted above is weighed to the nearest 0.1 mg in a pre-tarred 1.5-ml polypropylene vial with a screw-top lid. Absolute ethanol is added to the weighed powder to prepare a 25 mg/ml solution. Solutions are thoroughly mixed using a vortex mixer. A stainless steel spatula is used to crush any particulate material remaining after extensive mixing. Vials are left overnight at room temperature, and then remixed to form the concentrated ethanol stock solutions. The presence of undissolved material is noted throughout this procedure.

| SMILES | amount producing a response on line 719 versus amount causing a response on wild-type (A3237) [1] | Particulate material present, 100X Diln w/water [2] | Particulate material present, Initial Mixing [2] | Particulate material present, O/N Incubation [2] |
| --- | --- | --- | --- | --- |
| C=C1C[C@@]23CC[C@H]4[C@@](C)(CCC[C@@]4(C)C(=O)O)[C@@H]2CC[C@]1(O)C3 (single isomer, unassigned; ent-7) [steviol] | at least 10 times lower | – | – | – |
| C=C1C[C@]23C[C@@]1(O)CC[C@H]2[C@@]12C=C[C@H](OC(C)=O)[C@@](C)(C(=O)O1)[C@H]2[C@@H]3C(=O)O [GA3-3-acetate] | – | NO | NO | NO |
| C=C1C[C@]23C[C@H]1CC[C@H]2[C@@]12C=C[C@H](O)[C@@](C)(C(=O)O1)[C@H]2[C@@H]3C(=O)OC [GA7 methyl ester] | – | – | NO | NO |
| C=C1C[C@]23C[C@H]1CC[C@H]2[C@]1(C)CCC[C@@](C)(C(=O)O)[C@H]1[C@@H]3C=O [GA12-aldehyde] | at least 10 times lower | – | NO | NO |
| C=C1C[C@]23C[C@H]1CC[C@H]2[C@]1(C)CCC[C@@](C)(C(=O)O)[C@H]1[C@@H]3C(=O)O [GA12] | – | NO | – | – |
| C=C1C[C@]23C[C@@]1(O)CC[C@H]2[C@]1(C)CCC[C@@](C)(C(=O)O)[C@H]1[C@@H]3C(=O)O [GA53] | at least 10 times lower | – | – | – |

From patent US6723897B2, “Methods for controlling gibberellin levels” (Monsanto Technology, LLC, priority 1998, dated 2004)
